US11214556B1, “Method of treating colorectal cancer” (King Abdulaziz University, priority 2019, dated 2022)
pIC50: −log10 of the molar value. Some results were stated once for a whole list of compounds, not compound by compound.

What was measured:
Swiss albino mice = test: Acute oral toxicity (LD50), OECD guideline 423; assay type: in vivo; conditions: 10% suspension in water with 0.5% tween 80
Description: Since compounds with electrophilic properties, e.g., MA are usually involved in a variety of toxic effects on mammalians, the general acute toxicity of 1512, 3712 and 4112 was investigated by determining the in vivo lethal dose (LD50) according to the Globally Harmonized Classification System (GHS) and following the Organization for Economic Cooperation and Development (OECD) guideline 423 (modified, adopted Mar. 23, 2006). As observed in the cellular assay, the compound safety was confirmed, as the LD50 for all compounds were between 2000-5000 mg/kg (Category 5). See Spielmann, H.; Genschow, E.; Liebsch, M.; Halle, W., Determination of the starting dose for acute oral toxicity (LD50) testing in the up and down procedure (UDP) from cytotoxicity data. ATLA 1999, 27 (6), 957-966, incorporated herein by reference in its entirety.
The experiment was conducted on 12 healthy Swiss albino mice (males and females) weighing 22-27 g and aged 8 to 10 weeks obtained from the Animal Station, Pharmacology Dept, Faculty of Pharmacy, King Abdulaziz University, Jeddah. See Shoieb, S. M.; Esmat, A.; Khalifa, A. E.; Abdel-Naim, A. B., Chrysin attenuates testosterone-induced benign prostate hyperplasia in rats. Food and Chemical Toxicology 2018, 111, 650-659, incorporated herein by reference in its entirety. […]

[1] = test system: CRC cell lines (HCT-116, Caco-2 and HT-29); test: Cytotoxic activities against CRC cell lines (statement over three lines); assay type: cell-based, human
Description: Based on the favorable pharmacologic and physicochemical properties of MOS-1512, it was selected as a new lead for the second subset of compounds (MOS-1812 to MOS-5112). The compounds in this series contained variable groups at R^1 and R^2 that were all tested against the three cancer cell lines (HCT-116, Caco-2 and HT-29).
Different cell lines were originally purchased from American type culture collection (ATCC, Wesel, Germany) and grown in the tissue culture lab of the Egyptian company for production of vaccines, sera and drugs (Vacsera, Giza, Egypt). The cells were transferred to our laboratory and maintained in the appropriate media as following. […]
The sulforhodamine B (SRB) assays were performed according to Skehan, P.; Storeng, R.; Scudiero, D.; Monks, A.; McMahon, J.; Vistica, D.; Warren, J. T.; Bokesch, H.; Kenney, S.; Boyd, M. R., New colorimetric cytotoxicity assay for anticancer-drug screening. […] Briefly, exponentially growing cells were trypsinized, counted and seeded at the appropriate densities (5000 cells/100 μL/well) into 96-well microtiter plates. […] The protein-bound dye was dissolved in 10 mM Tris base solution for (optical density) OD determination at 510 nm using a SpectraMax plus Microplate Reader (Molecular Devices, CA). […]

Compound `CCCNC(=O)/C(=C/c1c[nH]c2ccccc12)NC(=O)/C=C/c1cccs1` [Compound 4112, (Z)-3-(1H-indol-3-yl)-N-propyl-2-[(E)-3-(thien-2-yl)acrylamidolacry]amide] has an LD50 (Swiss albino mice) of 2000 to 5000 mg/kg and a pIC50 [1] of over 5.30.
